According to PMC4666396:
No constants are given. Whether binding was seen depends on the method and setting. Binding seen in cells or lysates may run through a third protein. A yes stands for co-enrichment or nearness to the bait. Other partners may have been found.

T1: Splicing factor 1 (SF1) (human (endogenous in HeLa)) (UniProt Q15637)
T1 sequence: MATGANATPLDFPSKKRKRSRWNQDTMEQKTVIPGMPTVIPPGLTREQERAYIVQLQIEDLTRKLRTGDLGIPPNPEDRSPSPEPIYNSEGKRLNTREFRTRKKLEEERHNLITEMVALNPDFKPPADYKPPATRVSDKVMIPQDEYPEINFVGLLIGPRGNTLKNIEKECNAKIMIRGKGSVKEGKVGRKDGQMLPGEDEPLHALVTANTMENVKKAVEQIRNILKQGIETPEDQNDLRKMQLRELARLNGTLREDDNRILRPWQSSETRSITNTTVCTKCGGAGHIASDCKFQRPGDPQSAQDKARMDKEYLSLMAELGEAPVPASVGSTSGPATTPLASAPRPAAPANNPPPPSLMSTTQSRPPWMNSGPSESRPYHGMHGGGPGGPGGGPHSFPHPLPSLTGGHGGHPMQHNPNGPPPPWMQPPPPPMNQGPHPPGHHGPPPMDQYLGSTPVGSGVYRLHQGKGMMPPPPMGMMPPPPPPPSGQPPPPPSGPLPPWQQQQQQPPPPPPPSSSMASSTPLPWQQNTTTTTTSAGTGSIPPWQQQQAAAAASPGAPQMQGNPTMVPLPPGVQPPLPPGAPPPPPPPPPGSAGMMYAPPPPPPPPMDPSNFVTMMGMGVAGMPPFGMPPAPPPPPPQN


Biological target: T1, Splicing factor 1 (SF1) (human (endogenous in HeLa))
Test: affinity purification with mass spectrometry; anti-SF1 on Protein G Sepharose; HeLa cell nuclear extract without or with 0.3 mg/ml RNase A; IP buffer 50 mM Tris-HCl pH 7.9, 100 mM NaCl, 0.05% NP-40, 0.5 mM DTT, 1 h 4°C; 1D PAGE, LC-MSMS; control mouse IgG

binding	Binder
binds	9G8 (protein, UniProt Q16629 1-238) MSRYGRYGGETKVYVGNLGTGAGKGELERAFSYYGPLRTVWIARNPPGFAFVEFEDPRDAEDAVRGLDGKVICGSRVRVELSTGMPRRSRFDRPPARRPFDPNDRCYECGEKGHYAYDCHRYSRRRRSRSRSRSHSRSRGRRYSRSRSRSRGRRSRSASPRRSRSISLRRSRSASLRRSRSGSIKGSRYFQSPSRSRSRSRSISRPRSSRSKSRSPSPKRSRSPSGSPRRSASPERMD
binds	calcium homoeostasis endoplasmic reticulum protein (CHERP) (protein, UniProt Q8IWX8 1-916) MEMPLPPDDQELRNVIDKLAQFVARNGPEFEKMTMEKQKDNPKFSFLFGGEFYSYYKCKLALEQQQLICKQQTPELEPAATMPPLPQPPLAPAAPIPPAQGAPSMDELIQQSQWNLQQQEQHLLALRQEQVTAAVAHAVEQQMQKLLEETQLDMNEFDNLLQPIIDTCTKDAISAGKNWMFSNAKSPPHCELMAGHLRNRITADGAHFELRLHLIYLINDVLHHCQRKQARELLAALQKVVVPIYCTSFLAVEEDKQQKIARLLQLWEKNGYFDDSIIQQLQSPALGLGQYQATLINEYSSVVQPVQLAFQQQIQTLKTQHEEFVTSLAQQQQQQQQQQQQLQMPQMEAEVKATPPPPAPPPAPAPAPAIPPTTQPDDSKPPIQMPGSSEYEAPGGVQDPAAAGPRGPGPHDQIPPNKPPWFDQPHPVAPWGQQQPPEQPPYPHHQGGPPHCPPWNNSHEGMWGEQRGDPGWNGQRDAPWNNQPDAAWNSQFEGPWNSQHEQPPWGGGQREPPFRMQRPPHFRGPFPPHQQHPQFNQPPHPHNFNRFPPRFMQDDFPPRHPFERPPYPHRFDYPQGDFPAEMGPPHHHPGHRMPHPGINEHPPWAGPQHPDFGPPPHGFNGQPPHMRRQGPPHINHDDPSLVPNVPYFDLPAGLMAPLVKLEDHEYKPLDPKDIRLPPPMPPSERLLAAVEAFYSPPSHDRPRNSEGWEQNGLYEFFRAKMRARRRKGQEKRNSGPSRSRSRSKSRGRSSSRSNSRSSKSSGSYSRSRSRSCSRSYSRSRSRSRSRSRSSRSRSRSQSRSRSKSYSPGRRRRSRSRSPTPPSSAGLGSNSAPPIPDSRLGEENKGHQMLVKMGWSGSGGLGAKEQGIQDPIKGGDVRDKWDQYKGVGVALDDPYENYRRNKSYSFIARMKARDECK
binds	SF3b125 (protein, UniProt Q86XP3 1-938) MNWNKGGPGTKRGFGFGGFAISAGKKEEPKLPQQSHSAFGATSSSSGFGKSAPPQLPSFYKIGSKRANFDEENAYFEDEEEDSSNVDLPYIPAENSPTRQQFHSKPVDSDSDDDPLEAFMAEVEDQAARDMKRLEEKDKERKNVKGIRDDIEEEDDQEAYFRYMAENPTAGVVQEEEEDNLEYDSDGNPIAPTKKIIDPLPPIDHSEIDYPPFEKNFYNEHEEITNLTPQQLIDLRHKLNLRVSGAAPPRPGSSFAHFGFDEQLMHQIRKSEYTQPTPIQCQGVPVALSGRDMIGIAKTGSGKTAAFIWPMLIHIMDQKELEPGDGPIAVIVCPTRELCQQIHAECKRFGKAYNLRSVAVYGGGSMWEQAKALQEGAEIVVCTPGRLIDHVKKKATNLQRVSYLVFDEADRMFDMGFEYQVRSIASHVRPDRQTLLFSATFRKKIEKLARDILIDPIRVVQGDIGEANEDVTQIVEILHSGPSKWNWLTRRLVEFTSSGSVLLFVTKKANAEELANNLKQEGHNLGLLHGDMDQSERNKVISDFKKKDIPVLVATDVAARGLDIPSIKTVINYDVARDIDTHTHRIGRTGRAGEKGVAYTLLTPKDSNFAGDLVRNLEGANQHVSKELLDLAMQNAWFRKSRFKGGKGKKLNIGGGGLGYRERPGLGSENMDRGNNNVMSNYEAYKPSTGAMGDRLTAMKAAFQSQYKSHFVAASLSNQKAGSSAAGASGWTSAGSLNSVPTNSAQQGHNSPDSPVTSAAKGIPGFGNTGNISGAPVTYPSAGAQGVNNTASGNNSREGTGGSNGKRERYTENRGSSRHSHGETGNRHSDSPRHGDGGRHGDGYRHPESSSRHTDGHRHGENRHGGSAGRHGENRGANDGRNGESRKEAFNRESKMEPKMEPKVDSSKMDKVDSKTDKTADGFAVPEPPKRKKSRWDS
binds	SRp40 (protein, UniProt Q13243 1-272) MSGCRVFIGRLNPAAREKDVERFFKGYGRIRDIDLKRGFGFVEFEDPRDADDAVYELDGKELCSERVTIEHARARSRGGRGRGRYSDRFSSRRPRNDRRNAPPVRTENRLIVENLSSRVSWQDLKDFMRQAGEVTFADAHRPKLNEGVVEFASYGDLKNAIEKLSGKEINGRKIKLIEGSKRHSRSRSRSRSRTRSSSRSRSRSRSRSRKSYSRSRSRSRSRSRSKSRSVSRSPVPEKSQKRGSSSRSKSPASVDRQRSRSRSRSRSVDSGN
binds	SPF31 (protein, UniProt O75937 1-253) MAASGESGTSGGGGSTEEAFMTFYSEVKQIEKRDSVLTSKNQIERLTRPGSSYFNLNPFEVLQIDPEVTDEEIKKRFRQLSILVHPDKNQDDADRAQKAFEAVDKAYKLLLDQEQKKRALDVIQAGKEYVEHTVKERKKQLKKEGKPTIVEEDDPELFKQAVYKQTMKLFAELEIKRKEREAKEMHERKRQREEEIEAQEKAKREREWQKNFEESRDGRVDSWRNFQANTKGKKEKKNRTFLRPPKVKMEQRE
binds	SRp55 (protein, UniProt Q13247 1-344) MPRVYIGRLSYNVREKDIQRFFSGYGRLLEVDLKNGYGFVEFEDSRDADDAVYELNGKELCGERVIVEHARGPRRDRDGYSYGSRSGGGGYSSRRTSGRDKYGPPVRTEYRLIVENLSSRCSWQDLKDFMRQAGEVTYADAHKERTNEGVIEFRSYSDMKRALDKLDGTEINGRNIRLIEDKPRTSHRRSYSGSRSRSRSRRRSRSRSRRSSRSRSRSISKSRSRSRSRSKGRSRSRSKGRKSRSKSKSKPKSDRGSHSHSRSRSKDEYEKSRSRSRSRSPKENGKGDIKSKSRSRSQSRSNSPLPVPPSKARSVSPPPKRATSRSRSRSRSKSRSRSRSSSRD
binds	U2AF35 (protein, UniProt Q01081 1-240) MAEYLASIFGTEKDKVNCSFYFKIGACRHGDRCSRLHNKPTFSQTIALLNIYRNPQNSSQSADGLRCAVSDVEMQEHYDEFFEEVFTEMEEKYGEVEEMNVCDNLGDHLVGNVYVKFRREEDAEKAVIDLNNRWFNGQPIHAELSPVTDFREACCRQYEMGECTRGGFCNFMHLKPISRELRRELYGRRRKKHRSRSRSRERRSRSRDRGRGGGGGGGGGGGGRERDRRRSRDRERSGRF
binds	SURP and G-patch domain-containing protein 1 (SUGP1) (protein, UniProt Q8IWZ8 1-645) MSLKMDNRDVAGKANRWFGVAPPKSGKMNMNILHQEELIAQKKREIEAKMEQKAKQNQVASPQPPHPGEITNAHNSSCISNKFANDGSFLQQFLKLQKAQTSTDAPTSAPSAPPSTPTPSAGKRSLLISRRTGLGLASLPGPVKSYSHAKQLPVAHRPSVFQSPDEDEEEDYEQWLEIKVSPPEGAETRKVIEKLARFVAEGGPELEKVAMEDYKDNPAFAFLHDKNSREFLYYRKKVAEIRKEAQKSQAASQKVSPPEDEEVKNLAEKLARFIADGGPEVETIALQNNRENQAFSFLYEPNSQGYKYYRQKLEEFRKAKASSTGSFTAPDPGLKRKSPPEALSGSLPPATTCPASSTPAPTIIPAPAAPGKPASAATVKRKRKSRWGPEEDKVELPPAELVQRDVDASPSPLSVQDLKGLGYEKGKPVGLVGVTELSDAQKKQLKEQQEMQQMYDMIMQHKRAMQDMQLLWEKAVQQHQHGYDSDEEVDSELGTWEHQLRRMEMDKTREWAEQLTKMGRGKHFIGDFLPPDELEKFMETFKALKEGREPDYSEYKEFKLTVENIGYQMLMKMGWKEGEGLGSEGQGIKNPVNKGTTTVDGAGFGIDRPAELSKEDDEYEAFRKRMMLAYRFRPNPLNNPRRPYY
binds	hPRP6 (protein, UniProt O94906 1-941) MNKKKKPFLGMPAPLGYVPGLGRGATGFTTRSDIGPARDANDPVDDRHAPPGKRTVGDQMKKNQAADDDDEDLNDTNYDEFNGYAGSLFSSGPYEKDDEEADAIYAALDKRMDERRKERREQREKEEIEKYRMERPKIQQQFSDLKRKLAEVTEEEWLSIPEVGDARNKRQRNPRYEKLTPVPDSFFAKHLQTGENHTSVDPRQTQFGGLNTPYPGGLNTPYPGGMTPGLMTPGTGELDMRKIGQARNTLMDMRLSQVSDSVSGQTVVDPKGYLTDLNSMIPTHGGDINDIKKARLLLKSVRETNPHHPPAWIASARLEEVTGKLQVARNLIMKGTEMCPKSEDVWLEAARLQPGDTAKAVVAQAVRHLPQSVRIYIRAAELETDIRAKKRVLRKALEHVPNSVRLWKAAVELEEPEDARIMLSRAVECCPTSVELWLALARLETYENARKVLNKARENIPTDRHIWITAAKLEEANGNTQMVEKIIDRAITSLRANGVEINREQWIQDAEECDRAGSVATCQAVMRAVIGIGIEEEDRKHTWMEDADSCVAHNALECARAIYAYALQVFPSKKSVWLRAAYFEKNHGTRESLEALLQRAVAHCPKAEVLWLMGAKSKWLAGDVPAARSILALAFQANPNSEEIWLAAVKLESENDEYERARRLLAKARSSAPTARVFMKSVKLEWVQDNIRAAQDLCEEALRHYEDFPKLWMMKGQIEEQKEMMEKAREAYNQGLKKCPHSTPLWLLLSRLEEKIGQLTRARAILEKSRLKNPKNPGLWLESVRLEYRAGLKNIANTLMAKALQECPNSGILWSEAIFLEARPQRRTKSVDALKKCEHDPHVLLAVAKLFWSQRKITKAREWFHRTVKIDSDLGDAWAFFYKFELQHGTEEQQEEVRKRCESAEPRHGELWCAVSKDIANWQKKIGDILRLVAGRIKNTF
